# Some of the results follow. Only a few entries rise above the background.
# B1: 3S41.4 (protein)
# chain 1: EVQLVESGGGLVQPGGSLRLSCATSGFTFSNYWMYWFRQAPGKGLEWVSTISGSSTNTYYSGSVKGRFTISRDNAKNTLYLQMNSLRAEDTAVYYCARRGTDSSHWYFDLWGPGTPITVSS
# chain 2: EIVMTQSPATLSLSPGERATLSCRASQSVSSNLAWYQQKPGQGPRLLIYDASNRATGIPDRFGGSGSGTDFTLTISSLEPEDVGVYYCQQESNWPLTFGGGTKVEIK
# Key:
# Assay in all cases: fluorescence intensity of antibody binding to polysaccharide-coupled beads; higher = stronger binding
# [1] = biological target: pneumococcal polysaccharide Pn15B
# [2] = biological target: pneumococcal polysaccharide Pn15C
# [3] = biological target: pneumococcal polysaccharide Pn15F
# [4] = biological target: pneumococcal polysaccharide Pn16A
# [5] = biological target: pneumococcal polysaccharide Pn16F
# [6] = biological target: pneumococcal polysaccharide Pn17A
# [7] = biological target: pneumococcal polysaccharide Pn17F
# [8] = biological target: pneumococcal polysaccharide Pn18A
# [9] = biological target: pneumococcal polysaccharide Pn18B
# [10] = biological target: pneumococcal polysaccharide Pn18C
# [11] = biological target: pneumococcal polysaccharide Pn18F
# [12] = biological target: pneumococcal polysaccharide Pn19A
# [13] = biological target: pneumococcal polysaccharide Pn19B
# [14] = biological target: pneumococcal polysaccharide Pn19C
# [15] = biological target: pneumococcal polysaccharide Pn19F
# [16] = biological target: pneumococcal polysaccharide Pn2
# [17] = biological target: pneumococcal polysaccharide Pn20A
# [18] = biological target: pneumococcal polysaccharide Pn20B
# [19] = biological target: pneumococcal polysaccharide Pn21
# [20] = biological target: pneumococcal polysaccharide Pn22A
# [21] = biological target: pneumococcal polysaccharide Pn22F
# [22] = biological target: pneumococcal polysaccharide Pn23A
# [23] = biological target: pneumococcal polysaccharide Pn23B
# [24] = biological target: pneumococcal polysaccharide Pn23F
# [25] = antibody concentration 2337.65 ng/mL
# [26] = antibody concentration 12500 ng/mL
# [27] = antibody concentration 0.1 ng/mL
# [28] = antibody concentration 0.534724 ng/mL
# [29] = antibody concentration 2.8593 ng/mL
# [30] = antibody concentration 15.2894 ng/mL
# [31] = antibody concentration 81.7561 ng/mL
# [32] = antibody concentration 437.17 ng/mL
binder,measurement,setting,value
B1,fluorescence intensity,[1]; [25],24.2 MFI
same,fluorescence intensity,[1]; [26],34.2 MFI
same,fluorescence intensity,[2]; [27],16.5 MFI
same,fluorescence intensity,[2]; [28],17.8 MFI
same,fluorescence intensity,[2]; [29],18.2 MFI
same,fluorescence intensity,[2]; [30],17.5 MFI
same,fluorescence intensity,[2]; [31],16 MFI
same,fluorescence intensity,[2]; [32],18 MFI
same,fluorescence intensity,[2]; [25],19 MFI
same,fluorescence intensity,[2]; [26],28.2 MFI
same,fluorescence intensity,[3]; [27],17.5 MFI
same,fluorescence intensity,[3]; [28],17.5 MFI
same,fluorescence intensity,[3]; [29],16 MFI
same,fluorescence intensity,[3]; [30],16 MFI
same,fluorescence intensity,[3]; [31],15.5 MFI
same,fluorescence intensity,[3]; [32],19.2 MFI
same,fluorescence intensity,[3]; [25],20 MFI
same,fluorescence intensity,[3]; [26],32.2 MFI
same,fluorescence intensity,[4]; [27],14 MFI
same,fluorescence intensity,[4]; [28],13.2 MFI
same,fluorescence intensity,[4]; [29],14 MFI
same,fluorescence intensity,[4]; [30],13 MFI
same,fluorescence intensity,[4]; [31],15.2 MFI
same,fluorescence intensity,[4]; [32],15 MFI
same,fluorescence intensity,[4]; [25],17 MFI
same,fluorescence intensity,[4]; [26],29.5 MFI
same,fluorescence intensity,[5]; [27],26.5 MFI
same,fluorescence intensity,[5]; [28],23.5 MFI
same,fluorescence intensity,[5]; [29],22 MFI
same,fluorescence intensity,[5]; [30],22 MFI
same,fluorescence intensity,[5]; [31],22.8 MFI
same,fluorescence intensity,[5]; [32],25 MFI
same,fluorescence intensity,[5]; [25],30.2 MFI
same,fluorescence intensity,[5]; [26],50 MFI
same,fluorescence intensity,[6]; [27],20 MFI
same,fluorescence intensity,[6]; [28],20 MFI
same,fluorescence intensity,[6]; [29],20.5 MFI
same,fluorescence intensity,[6]; [30],20.5 MFI
same,fluorescence intensity,[6]; [31],19.5 MFI
same,fluorescence intensity,[6]; [32],22 MFI
same,fluorescence intensity,[6]; [25],20.8 MFI
same,fluorescence intensity,[6]; [26],30 MFI
same,fluorescence intensity,[7]; [27],24.5 MFI
same,fluorescence intensity,[7]; [28],25 MFI
same,fluorescence intensity,[7]; [29],26.5 MFI
same,fluorescence intensity,[7]; [30],27 MFI
same,fluorescence intensity,[7]; [31],25 MFI
same,fluorescence intensity,[7]; [32],27 MFI
same,fluorescence intensity,[7]; [25],28.5 MFI
same,fluorescence intensity,[7]; [26],36 MFI
same,fluorescence intensity,[8]; [27],23 MFI
same,fluorescence intensity,[8]; [28],23 MFI
same,fluorescence intensity,[8]; [29],22.5 MFI
same,fluorescence intensity,[8]; [30],23 MFI
same,fluorescence intensity,[8]; [31],24 MFI
same,fluorescence intensity,[8]; [32],22.5 MFI
same,fluorescence intensity,[8]; [25],27 MFI
same,fluorescence intensity,[8]; [26],39 MFI
same,fluorescence intensity,[9]; [27],30.5 MFI
same,fluorescence intensity,[9]; [28],29.5 MFI
same,fluorescence intensity,[9]; [29],29.2 MFI
same,fluorescence intensity,[9]; [30],29.2 MFI
same,fluorescence intensity,[9]; [31],30.2 MFI
same,fluorescence intensity,[9]; [32],30 MFI
same,fluorescence intensity,[9]; [25],35.5 MFI
same,fluorescence intensity,[9]; [26],52 MFI
same,fluorescence intensity,[10]; [27],18 MFI
same,fluorescence intensity,[10]; [28],17 MFI
same,fluorescence intensity,[10]; [29],18 MFI
same,fluorescence intensity,[10]; [30],18 MFI
same,fluorescence intensity,[10]; [31],17.5 MFI
same,fluorescence intensity,[10]; [32],19.5 MFI
same,fluorescence intensity,[10]; [25],24 MFI
same,fluorescence intensity,[10]; [26],42 MFI
same,fluorescence intensity,[11]; [27],20.2 MFI
same,fluorescence intensity,[11]; [28],22.5 MFI
same,fluorescence intensity,[11]; [29],23.5 MFI
same,fluorescence intensity,[11]; [30],23 MFI
same,fluorescence intensity,[11]; [31],23.5 MFI
same,fluorescence intensity,[11]; [32],24.5 MFI
same,fluorescence intensity,[11]; [25],30.5 MFI
same,fluorescence intensity,[11]; [26],48 MFI
same,fluorescence intensity,[12]; [27],17.5 MFI
same,fluorescence intensity,[12]; [28],17.2 MFI
same,fluorescence intensity,[12]; [29],17.8 MFI
same,fluorescence intensity,[12]; [30],18.8 MFI
same,fluorescence intensity,[12]; [31],18 MFI
same,fluorescence intensity,[12]; [32],20 MFI
same,fluorescence intensity,[12]; [25],20 MFI
same,fluorescence intensity,[12]; [26],32 MFI
same,fluorescence intensity,[13]; [27],31 MFI
same,fluorescence intensity,[13]; [28],26.8 MFI
same,fluorescence intensity,[13]; [29],27.8 MFI
same,fluorescence intensity,[13]; [30],28 MFI
same,fluorescence intensity,[13]; [31],27 MFI
same,fluorescence intensity,[13]; [32],30.2 MFI
same,fluorescence intensity,[13]; [25],45.5 MFI
same,fluorescence intensity,[13]; [26],152 MFI
same,fluorescence intensity,[14]; [27],27.5 MFI
same,fluorescence intensity,[14]; [28],25 MFI
same,fluorescence intensity,[14]; [29],23.8 MFI
same,fluorescence intensity,[14]; [30],27.5 MFI
same,fluorescence intensity,[14]; [31],26 MFI
same,fluorescence intensity,[14]; [32],25.5 MFI
same,fluorescence intensity,[14]; [25],35.2 MFI
same,fluorescence intensity,[14]; [26],108 MFI
same,fluorescence intensity,[15]; [27],25 MFI
same,fluorescence intensity,[15]; [28],23.2 MFI
same,fluorescence intensity,[15]; [29],24 MFI
same,fluorescence intensity,[15]; [30],24.8 MFI
same,fluorescence intensity,[15]; [31],25 MFI
same,fluorescence intensity,[15]; [32],26.5 MFI
same,fluorescence intensity,[15]; [25],30 MFI
same,fluorescence intensity,[15]; [26],47.5 MFI
same,fluorescence intensity,[16]; [27],17.8 MFI
same,fluorescence intensity,[16]; [28],18 MFI
same,fluorescence intensity,[16]; [29],22 MFI
same,fluorescence intensity,[16]; [30],18 MFI
same,fluorescence intensity,[16]; [31],20.8 MFI
same,fluorescence intensity,[16]; [32],18.8 MFI
same,fluorescence intensity,[16]; [25],23.5 MFI
same,fluorescence intensity,[16]; [26],33.5 MFI
same,fluorescence intensity,[17]; [27],24.5 MFI
same,fluorescence intensity,[17]; [28],22.5 MFI
same,fluorescence intensity,[17]; [29],22.5 MFI
same,fluorescence intensity,[17]; [30],22.5 MFI
same,fluorescence intensity,[17]; [31],21.2 MFI
same,fluorescence intensity,[17]; [32],22.5 MFI
same,fluorescence intensity,[17]; [25],35 MFI
same,fluorescence intensity,[17]; [26],110 MFI
same,fluorescence intensity,[18]; [27],23.8 MFI
same,fluorescence intensity,[18]; [28],22.5 MFI
same,fluorescence intensity,[18]; [29],22.5 MFI
same,fluorescence intensity,[18]; [30],23.2 MFI
same,fluorescence intensity,[18]; [31],23.5 MFI
same,fluorescence intensity,[18]; [32],23.5 MFI
same,fluorescence intensity,[18]; [25],27 MFI
same,fluorescence intensity,[18]; [26],43 MFI
same,fluorescence intensity,[19]; [27],20 MFI
same,fluorescence intensity,[19]; [28],17.5 MFI
same,fluorescence intensity,[19]; [29],19 MFI
same,fluorescence intensity,[19]; [30],19 MFI
same,fluorescence intensity,[19]; [31],18 MFI
same,fluorescence intensity,[19]; [32],19 MFI
same,fluorescence intensity,[19]; [25],20 MFI
same,fluorescence intensity,[19]; [26],26.5 MFI
same,fluorescence intensity,[20]; [27],22 MFI
same,fluorescence intensity,[20]; [28],19.5 MFI
same,fluorescence intensity,[20]; [29],20.2 MFI
same,fluorescence intensity,[20]; [30],20 MFI
same,fluorescence intensity,[20]; [31],21.8 MFI
same,fluorescence intensity,[20]; [32],21.8 MFI
same,fluorescence intensity,[20]; [25],26.2 MFI
same,fluorescence intensity,[20]; [26],56.8 MFI
same,fluorescence intensity,[21]; [27],30.5 MFI
same,fluorescence intensity,[21]; [28],30 MFI
same,fluorescence intensity,[21]; [29],26.2 MFI
same,fluorescence intensity,[21]; [30],33.5 MFI
same,fluorescence intensity,[21]; [31],31.5 MFI
same,fluorescence intensity,[21]; [32],32 MFI
same,fluorescence intensity,[21]; [25],30 MFI
same,fluorescence intensity,[21]; [26],43 MFI
same,fluorescence intensity,[22]; [27],22.5 MFI
same,fluorescence intensity,[22]; [28],25.5 MFI
same,fluorescence intensity,[22]; [29],25 MFI
same,fluorescence intensity,[22]; [30],24.5 MFI
same,fluorescence intensity,[22]; [31],24 MFI
same,fluorescence intensity,[22]; [32],29.5 MFI
same,fluorescence intensity,[22]; [25],44.5 MFI
same,fluorescence intensity,[22]; [26],75 MFI
same,fluorescence intensity,[23]; [27],30 MFI
same,fluorescence intensity,[23]; [28],28 MFI
same,fluorescence intensity,[23]; [29],29 MFI
same,fluorescence intensity,[23]; [30],27 MFI
same,fluorescence intensity,[23]; [31],28 MFI
same,fluorescence intensity,[23]; [32],31.8 MFI
same,fluorescence intensity,[23]; [25],32.5 MFI
same,fluorescence intensity,[23]; [26],47.2 MFI
same,fluorescence intensity,[24]; [27],16.2 MFI
same,fluorescence intensity,[24]; [28],15.5 MFI

# Quoted from above (4 entries):
binder,measurement,setting,value
B1,fluorescence intensity,[9]; [26],52 MFI
same,fluorescence intensity,[10]; [27],18 MFI
same,fluorescence intensity,[10]; [28],17 MFI
same,fluorescence intensity,[10]; [29],18 MFI

# Shown with bars between the fields: part of the list above
binder | measurement | setting | value
B1 | fluorescence intensity | [2]; [31] | 16 MFI
same | fluorescence intensity | [5]; [27] | 26.5 MFI
same | fluorescence intensity | [12]; [26] | 32 MFI
same | fluorescence intensity | [23]; [31] | 28 MFI

# In a second layout: entries from further up
binder	measurement	setting	value
B1	fluorescence intensity	[1]; [25]	24.2 MFI
same	fluorescence intensity	[1]; [26]	34.2 MFI
same	fluorescence intensity	[2]; [27]	16.5 MFI
